Experimental data from article doi:10.1101/2022.02.24.481869.
Like-named read-outs stand apart in the source and are kept apart here. Results are given in words; binding and its absence hold for the method and conditions named. Some results given as binding are weak or reduced against the parent protein; the word gives no strength. Tags and fused reporters may be left off the sequences shown.

Chains of the proteins cited; added tags and fusions are not shown.
UniProt P25090: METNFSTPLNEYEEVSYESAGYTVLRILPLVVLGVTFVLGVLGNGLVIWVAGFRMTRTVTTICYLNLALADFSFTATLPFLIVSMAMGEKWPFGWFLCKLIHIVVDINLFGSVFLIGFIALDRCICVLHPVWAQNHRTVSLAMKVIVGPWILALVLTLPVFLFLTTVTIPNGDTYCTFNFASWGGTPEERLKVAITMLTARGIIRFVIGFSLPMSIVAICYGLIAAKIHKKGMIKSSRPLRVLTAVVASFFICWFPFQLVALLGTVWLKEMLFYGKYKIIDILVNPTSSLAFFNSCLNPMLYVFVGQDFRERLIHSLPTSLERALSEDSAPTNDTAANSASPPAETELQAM
UniProt P21462: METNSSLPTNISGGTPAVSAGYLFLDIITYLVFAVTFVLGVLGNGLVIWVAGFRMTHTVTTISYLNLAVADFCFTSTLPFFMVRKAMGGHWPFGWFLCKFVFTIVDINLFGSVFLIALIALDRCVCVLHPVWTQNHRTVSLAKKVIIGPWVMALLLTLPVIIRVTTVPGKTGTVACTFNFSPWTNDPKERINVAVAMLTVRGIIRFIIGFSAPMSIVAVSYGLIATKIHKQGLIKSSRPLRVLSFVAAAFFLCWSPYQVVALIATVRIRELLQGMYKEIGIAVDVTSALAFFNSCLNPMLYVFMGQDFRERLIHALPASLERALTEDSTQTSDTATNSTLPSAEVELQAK

Key:
Assay in all cases: AlphaScreen or HTRF
[1] = target: formyl peptide receptor 2 (FPR2), SNAP-tagged, on cells (UniProt P25090)
[2] = target: formyl peptide receptor 1 (FPR1), SNAP-tagged, on cells (UniProt P21462)
[3] = target: formyl peptide receptor 2 (FPR2), SNAP-tagged, on cells (UniProt P25090); remark: listed apart in the source
[4] = target: formyl peptide receptor 1 (FPR1), SNAP-tagged, on cells (UniProt P21462); remark: listed apart in the source

Measured: binding

B1: FAM3 metabolism regulating signaling molecule D (FAM3D), XL665-tagged (ligand, UniProt Q96BQ1 26-224)
chain: YMSFSMKTIRLPRWLAASPTKEIQVKKYKCGLIKPCPANYFAFKICSGAANVVGPTMCFEDRMIMSPVKNNVGRGLNIALVNGTTGAVLGQKAFDMYSGDVMHLVKFLKEIPGGALVLVASYDDPGTKMNDESRKLFSDLGSSYAKQLGFRDSWVFIGAKDLRGKSPFEQFLKNSPDTNKYEGWPELLEMEGCMPPKPF
modifications: XL665 label (position not given)
binds: [1] | [2] | [3] | [4]
